No constants are given. Whether binding was seen depends on the method and setting. Binding seen in cells or lysates may run through a third protein. Some entries that bind do so weakly or less than the wild type.

Protein sequences, listed by entry. Tags and fused reporters are not part of them. Lines headed by an entry give the natural chain unless they say otherwise; changes in a name come on top.
UniProt Q96L91: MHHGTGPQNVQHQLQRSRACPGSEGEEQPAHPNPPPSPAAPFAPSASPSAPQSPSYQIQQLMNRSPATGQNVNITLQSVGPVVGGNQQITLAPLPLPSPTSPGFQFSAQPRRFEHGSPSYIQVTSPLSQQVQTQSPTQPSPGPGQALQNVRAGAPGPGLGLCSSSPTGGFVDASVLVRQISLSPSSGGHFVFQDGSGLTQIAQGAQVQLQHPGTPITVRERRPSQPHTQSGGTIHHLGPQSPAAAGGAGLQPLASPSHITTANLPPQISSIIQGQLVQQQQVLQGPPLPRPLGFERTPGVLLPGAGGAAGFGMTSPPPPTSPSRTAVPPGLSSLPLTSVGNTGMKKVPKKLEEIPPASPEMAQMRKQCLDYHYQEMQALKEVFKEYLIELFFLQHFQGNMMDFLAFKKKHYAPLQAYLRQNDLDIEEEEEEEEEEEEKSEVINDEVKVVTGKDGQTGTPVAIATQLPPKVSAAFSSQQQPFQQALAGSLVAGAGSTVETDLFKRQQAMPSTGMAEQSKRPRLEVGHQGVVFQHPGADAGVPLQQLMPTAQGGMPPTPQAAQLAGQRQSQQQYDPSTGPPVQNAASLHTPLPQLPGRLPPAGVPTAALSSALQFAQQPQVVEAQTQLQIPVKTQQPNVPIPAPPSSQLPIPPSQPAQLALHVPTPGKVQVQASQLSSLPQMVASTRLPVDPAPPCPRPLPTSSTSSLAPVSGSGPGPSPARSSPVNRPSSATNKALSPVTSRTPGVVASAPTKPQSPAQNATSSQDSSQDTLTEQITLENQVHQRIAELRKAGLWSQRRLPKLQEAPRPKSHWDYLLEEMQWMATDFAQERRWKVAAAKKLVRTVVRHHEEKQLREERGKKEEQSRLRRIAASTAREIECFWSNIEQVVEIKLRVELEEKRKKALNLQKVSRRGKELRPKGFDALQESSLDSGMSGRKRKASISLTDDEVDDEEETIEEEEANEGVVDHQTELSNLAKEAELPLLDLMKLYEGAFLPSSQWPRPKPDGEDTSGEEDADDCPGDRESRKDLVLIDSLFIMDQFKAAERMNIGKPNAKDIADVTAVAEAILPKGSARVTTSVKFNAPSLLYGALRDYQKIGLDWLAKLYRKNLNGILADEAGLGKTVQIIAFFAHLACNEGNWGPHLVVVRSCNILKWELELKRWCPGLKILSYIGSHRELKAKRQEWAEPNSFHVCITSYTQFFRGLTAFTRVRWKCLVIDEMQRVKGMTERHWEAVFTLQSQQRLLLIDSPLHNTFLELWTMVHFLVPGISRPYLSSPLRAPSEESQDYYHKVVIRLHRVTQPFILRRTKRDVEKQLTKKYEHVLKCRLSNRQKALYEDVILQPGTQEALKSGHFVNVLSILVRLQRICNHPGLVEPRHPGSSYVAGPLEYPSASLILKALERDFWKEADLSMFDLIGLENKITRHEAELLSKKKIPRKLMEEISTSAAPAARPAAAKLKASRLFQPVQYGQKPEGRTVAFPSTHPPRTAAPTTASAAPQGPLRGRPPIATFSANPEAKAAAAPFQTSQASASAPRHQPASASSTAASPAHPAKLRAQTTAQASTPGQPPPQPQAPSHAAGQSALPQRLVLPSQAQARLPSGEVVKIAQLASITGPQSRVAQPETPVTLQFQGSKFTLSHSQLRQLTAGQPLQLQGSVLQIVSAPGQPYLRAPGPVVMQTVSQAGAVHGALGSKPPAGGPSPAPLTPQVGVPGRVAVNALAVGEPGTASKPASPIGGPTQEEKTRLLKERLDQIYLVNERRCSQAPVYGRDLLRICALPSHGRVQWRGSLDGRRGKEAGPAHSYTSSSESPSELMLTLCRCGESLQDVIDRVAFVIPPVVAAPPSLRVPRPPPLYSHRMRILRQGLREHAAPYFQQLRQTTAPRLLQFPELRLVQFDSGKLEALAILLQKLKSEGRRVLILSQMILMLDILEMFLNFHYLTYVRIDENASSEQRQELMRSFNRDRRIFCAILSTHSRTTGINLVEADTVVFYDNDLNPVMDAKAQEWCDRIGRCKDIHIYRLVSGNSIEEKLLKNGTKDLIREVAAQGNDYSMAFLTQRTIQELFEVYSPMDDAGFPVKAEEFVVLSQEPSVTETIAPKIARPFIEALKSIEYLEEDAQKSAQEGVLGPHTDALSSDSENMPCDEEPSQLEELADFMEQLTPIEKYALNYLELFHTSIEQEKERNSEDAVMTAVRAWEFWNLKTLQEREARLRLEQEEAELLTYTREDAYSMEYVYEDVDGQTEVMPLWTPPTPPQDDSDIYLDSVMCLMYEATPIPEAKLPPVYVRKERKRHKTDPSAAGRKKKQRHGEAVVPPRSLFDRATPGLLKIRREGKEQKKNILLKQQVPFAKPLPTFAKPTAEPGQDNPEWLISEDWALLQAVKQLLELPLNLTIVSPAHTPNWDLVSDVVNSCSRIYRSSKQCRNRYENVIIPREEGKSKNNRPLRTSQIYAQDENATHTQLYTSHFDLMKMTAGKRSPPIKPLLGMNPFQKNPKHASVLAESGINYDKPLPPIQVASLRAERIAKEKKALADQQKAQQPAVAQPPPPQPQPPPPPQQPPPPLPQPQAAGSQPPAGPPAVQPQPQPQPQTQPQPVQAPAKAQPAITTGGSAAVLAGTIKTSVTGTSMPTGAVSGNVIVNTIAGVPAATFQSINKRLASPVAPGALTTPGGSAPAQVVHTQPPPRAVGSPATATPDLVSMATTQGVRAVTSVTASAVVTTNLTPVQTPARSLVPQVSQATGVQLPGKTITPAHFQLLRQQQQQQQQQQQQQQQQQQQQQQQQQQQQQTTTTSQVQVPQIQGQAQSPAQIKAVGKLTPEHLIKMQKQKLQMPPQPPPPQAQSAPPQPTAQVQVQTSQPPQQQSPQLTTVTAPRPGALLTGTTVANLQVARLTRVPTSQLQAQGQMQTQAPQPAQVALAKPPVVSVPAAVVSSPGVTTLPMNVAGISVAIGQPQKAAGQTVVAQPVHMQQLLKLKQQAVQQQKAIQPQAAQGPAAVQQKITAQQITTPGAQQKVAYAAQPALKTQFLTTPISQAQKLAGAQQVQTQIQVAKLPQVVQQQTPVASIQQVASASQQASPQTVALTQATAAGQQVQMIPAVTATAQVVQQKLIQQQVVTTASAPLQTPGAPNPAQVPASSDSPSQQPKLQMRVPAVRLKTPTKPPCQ
UniProt Q92993: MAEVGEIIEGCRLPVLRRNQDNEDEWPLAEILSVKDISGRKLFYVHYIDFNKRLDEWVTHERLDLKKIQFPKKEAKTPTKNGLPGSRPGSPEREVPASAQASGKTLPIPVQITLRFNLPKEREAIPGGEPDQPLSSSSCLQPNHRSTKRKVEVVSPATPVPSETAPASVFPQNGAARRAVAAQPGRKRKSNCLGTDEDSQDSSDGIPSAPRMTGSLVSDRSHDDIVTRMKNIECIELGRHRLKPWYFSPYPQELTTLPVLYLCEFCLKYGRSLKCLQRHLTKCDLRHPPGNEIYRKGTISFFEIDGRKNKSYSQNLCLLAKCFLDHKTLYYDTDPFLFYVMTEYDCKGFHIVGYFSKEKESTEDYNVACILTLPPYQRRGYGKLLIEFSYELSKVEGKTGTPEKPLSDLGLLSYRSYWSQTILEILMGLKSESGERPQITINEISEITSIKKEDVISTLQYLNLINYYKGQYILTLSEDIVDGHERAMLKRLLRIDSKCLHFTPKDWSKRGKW

Assay [1] concerns the target HA-p400 (p400 ATPase), expressed in HEK293T cells (UniProt Q96L91). In words: co-IP; HEK293T cells (control, stably expressing Flag-F1, or transiently expressing F2 or F3) transiently expressing HA-p400; lysates pre-cleared with protein A/G beads for 3 h, precipitated with anti-HA antibody-conjugated beads; immunoblot for endogenous ATM, endogenous TRRAP and Flag (Fig. 5a, 5b). (In general: A western blot detects proteins with antibodies after separation by electrophoresis.)

Assay [2] addresses Flag-ATM, expressed in baculovirus-infected Sf9 cells (UniProt Q13315). Kind of assay: co-IP; baculovirus-infected Sf9 cells, whole cell extract at 48 h post-infection, reciprocal precipitation with anti-Flag M2 agarose; immunoblot (Fig. 2c).

With “Flag-F1, N-terminal fragment 1 (1–719) of p400 (from UniProt Q96L91 1-719) (domain or fragment)”, the binding entry in assay [1] is listed as “no binding”.
For “HA-TIP60, expressed in baculovirus-infected Sf9 cells (from UniProt Q92993 1-513)”, the binding entry in assay [2] is “binds”.
On the same count and under the same terms, to “HA-p400, expressed in baculovirus-infected Sf9 cells (from UniProt Q96L91 1-3159)” belongs “binds”.
Regarding “endogenous TRRAP of HEK293T cells (from UniProt Q9Y4A5 1-3859)”, in assay [1], the binding entry is “binds”.

(Values after PMC5097431.)
